Results on 1 molecule are retold here after patent US20180256746A1, “IMMEDIATE RELEASE CLINDAMYCIN DELIVERY COMPOSITION AND FORMULATION” (Iono Pharma, LLC, priority 2017, published 2018).

The conditions of the data set: one month at 25° C. and 40° C.

Molecules are shown by their SMILES. Structures can show the parent of a compound that is named as a salt.

On to `CCC[C@@H]1C[C@@H](C(=O)N[C@@H]([C@H]2O[C@H](SC)[C@H](O)[C@@H](O)[C@H]2O)[C@H](C)Cl)N(C)C1` [clindamycin, clindamycin hydrochloride], for which, where the note is “75 mg clindamycin HCl in 5 ml DI water with suspension excipients”, the “stability in the presence of excipients (no resin)” value is reported as “no degradation”. The “stability profile in DI water” value (75 mg clindamycin HCl in 5 ml DI water) is recorded as “no degradation”.
